PubChem BioAssay AID504784, Drosophila RNAi Screening Center | 2011
Test: 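Fly genes whose silencing alters how much lipid cells keep in droplets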 (primary screen). Cell system: Drosophila Kc167 embryonic cells. Reagent: long dsRNA against Drosophila genes, about 250 ng dsRNA per well. Duration: 4 days. Conditions: cells fed 400 µM oleic acid bound to BSA. Measurement: 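Cells imaged and segmented; ratio of lipid droplet area to nuclear area, log-transformed, then normalised as a B-score over the screen; higher means more stored lipid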. Direction: droplet/nuclear area B-score: higher = more stored lipid (overstorage).
The deposit covers about 17,000 reagents; this is a random part of those with a known target gene and a result. 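Each column is one replicate's B-score; the combined score over replicates was not deposited, so single values may mislead.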 A plus sign joins genes that one reagent is predicted to hit.

gene knocked down,amplicon,"droplet/nuclear area B-score, replicate 1","droplet/nuclear area B-score, replicate 2","droplet/nuclear area B-score, replicate 3"
Jon65Ai,DRSC09731,-0.398,0.287,
Mst57Db,DRSC21551,0.617,-1.19,
RunxA,DRSC20498,-0.525,1.29,
RunxA,DRSC20524,,-0.0778,
RunxA,DRSC21915,-0.689,-0.632,
CG8818,DRSC07275,1.28,-0.761,
Rpt2,DRSC16799,-0.784,-0.523,
CG42458,DRSC10335,0.0263,9.43,
CG42458,DRSC23129,-1.03,-2.08,
CG42458,DRSC23261,-1.13,-0.958,
CG43325,DRSC04157,0.0587,0.0661,
arm,DRSC18738,0.0131,-0.681,
Spn43Ab,DRSC06781,0.0634,0.771,
tsg,DRSC20380,-0.189,0.18,-0.295
CG7402,DRSC10839,0.865,-0.298,
Ugt35E1,DRSC15193,-1.68,-0.112,
CG31431,DRSC14589,0.914,0.881,
Dbp45A,DRSC07395,3.5,2.58,
CG15764,DRSC18070,0.0472,-0.759,
Moca-cyp,DRSC15364,-1.55,1.01,
Ntf-2r,DRSC02019,-0.0719,-1.04,
Gr59f,DRSC04499,-0.192,-0.143,
CG11267,DRSC09833,0.737,0.262,
CG8668,DRSC03101,-1.04,0.329,
CG13239,DRSC11694,0.343,-0.771,
Or94b,DRSC16773,-0.517,0.406,
Hipk,DRSC07885,-1.32,-0.114,
Hipk,DRSC08507,-0.975,-2.8,
Hipk,DRSC23155,1.26,-0.072,
CG8197,DRSC07105,-0.151,0.419,
Usp32,DRSC10979,-1.2,-2.65,
Nsun2,DRSC18662,-0.012,-0.0865,0.785
CG5897,DRSC10555,-2.28,-0.0508,
B-H2,DRSC19335,-1.46,-4.98,
B-H2,DRSC23012,0.688,0.864,
alpha-Est7,DRSC12619,0.528,0.384,
CG12237,DRSC19449,0.512,0.454,1.2
CG12237,DRSC22256,0.742,0.00605,
Idgf6,DRSC07360,1.63,-0.763,
AMPKalpha,DRSC18714,0.48,,
CG32333,DRSC08627,-4.28,0.283,
CG32333,DRSC08629,0.121,2.71,
CG13877 + pyx,DRSC08347,-0.27,-0.506,
TM4SF,DRSC04661,1.39,-0.0974,
CG16753,DRSC08489,0.157,-1.08,
CG7798,DRSC07047,-0.571,-0.00401,
CG6171,DRSC15982,0.434,0.407,
CG31998,DRSC17137,0.865,,
CG31998,DRSC17138,0.422,-0.669,
CG3434,DRSC10365,-0.893,-0.302,
Fen1,DRSC07415,-2.13,0.906,
CG32277,DRSC08196,-1.82,-0.57,
CAH15,DRSC04534,0.828,-1.44,
ETHR,DRSC15915,-3,1.56,
CG14219,DRSC19576,0.423,-0.57,
CG2887,DRSC18235,1.08,-0.392,1.21
CG6398,DRSC19992,-0.408,-0.968,
DIP-beta,DRSC20489,1.6,0.431,
DIP-beta,DRSC20490,0.452,-0.941,
DIP-beta,DRSC20505,-0.025,-0.169,
I-t,DRSC16713,0.225,0.404,
ReepA,DRSC04572,1.24,-0.615,
ReepA,DRSC22475,-1.21,-0.856,
ocm,DRSC04360,2.1,3.2,
CG11000,DRSC12158,-0.97,-2.22,
mRpL18,DRSC06142,2.19,3.71,
CG14105,DRSC10107,-0.511,-0.401,
PK2-R1,DRSC16447,-0.229,0.0239,
CSN3,DRSC11859,0.277,0.676,
CG15498,DRSC15040,0.539,0.79,
CG15056,DRSC19630,0.383,1.89,
for,DRSC00195,-0.504,-0.867,
for,DRSC00818,0.263,2.07,
Ser12,DRSC00786,0.621,0.549,
CG32686,DRSC17645,0.0421,-1.36,
Hsp26,DRSC11189,-0.582,0.432,
Acox57D-p,DRSC04560,-0.435,-0.665,
ox,DRSC07520,1.29,0.441,
Oatp30B,DRSC02727,0.0492,1.4,
bcn92,DRSC18741,0.0207,-1.3,
Galphaf,DRSC11171,-0.636,-0.244,
Drat,DRSC06600,1.64,3.2,
IM33,DRSC00476,-2.25,0.0884,
Rac1,DRSC08688,-0.0511,1.1,
CG30484,DRSC05457,-2.51,-1.26,
CG14454,DRSC11711,-0.478,-0.767,
CG7071 + Muted,DRSC16189,1.69,1.66,
CG4000,DRSC15535,1.06,1.39,1.58
CG4000,DRSC21547,2.47,1.41,
DNAlig3,DRSC15201,-0.751,1.59,
CG12645,DRSC17851,-0.476,-2.21,0.802
Gr98a,DRSC14719,2.01,2.77,
Ir67c,DRSC22097,-1.52,-0.187,
CG11723,DRSC00324,-0.541,0.847,
Nf-YB,DRSC02057,-1.19,-1.03,
CG32095,DRSC22615,-0.00241,0.0238,
CG15820,DRSC08480,0.587,0.334,
CG14282,DRSC14763,0.537,1.94,
Xpc,DRSC07654,-1.34,,
CG10338,DRSC02039,0.622,0.585,
Eph,DRSC17164,0.808,0.828,
CG12496,DRSC18602,0.307,-2.39,
CG15841 (retired record) + Acp33A,DRSC01859,0.242,0.636,
CG17219,DRSC00486,-0.302,-0.259,
CG9663,DRSC00724,0.275,0.0263,

No new results follow: 5 of the entries above.
gene knocked down,amplicon,"droplet/nuclear area B-score, replicate 1","droplet/nuclear area B-score, replicate 2","droplet/nuclear area B-score, replicate 3"
Ntf-2r,DRSC02019,-0.0719,-1.04,
Gr59f,DRSC04499,-0.192,-0.143,
CG11267,DRSC09833,0.737,0.262,
CG8668,DRSC03101,-1.04,0.329,
CG13239,DRSC11694,0.343,-0.771,
